# According to PubChem BioAssay AID555 (SRMLSC, 2006):
# The list shows a part of the results.
# Tested on: mevalonate kinase [Streptococcus pneumoniae D39]
# Assay: pneumococcal mevalonate kinase activity blockers – biochemical, PK/LDH-coupled NADH absorbance, primary screen (AID 555)
# Conditions: purified MK, PK/LDH-coupled NADH absorbance 340 nm; measured here: pilot screen replicates; at 10 µM; stronger effect = higher value
row,SMILES,inhibition
1,Fc1ccccc1NC1CCN(Cc2ccccc2)CC1,1.5%
